Results as given in article PMC13415529.
Results are given in words; binding and its absence hold for the method and conditions named. Binding seen in cells or lysates may run through a third protein. Some entries that bind do so weakly or less than the wild type.

The chains behind the UniProt entries cited, without tags or fusion partners.
UniProt Q9H9Q4: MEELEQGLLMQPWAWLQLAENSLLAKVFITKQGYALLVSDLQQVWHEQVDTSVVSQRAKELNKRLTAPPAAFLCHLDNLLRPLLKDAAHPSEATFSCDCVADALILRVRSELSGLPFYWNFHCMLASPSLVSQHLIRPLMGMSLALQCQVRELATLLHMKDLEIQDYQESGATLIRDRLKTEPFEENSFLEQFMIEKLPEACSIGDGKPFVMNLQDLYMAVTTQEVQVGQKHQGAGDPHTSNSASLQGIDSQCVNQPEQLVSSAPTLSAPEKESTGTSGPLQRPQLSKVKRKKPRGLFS

Target: GST-UFM1 (human (by the printed UniProt accession)) (UniProt P61960)
Test: pull-down; 3–5 µg GST-UFM1 on glutathione magnetic beads, overnight at 4 °C with extract of transfected HEK293T cells; washes NETN and PBS; immunoblot; only the target purified

binding: binds
Substance: GFP-tagged XLF (from UniProt Q9H9Q4 1-299)
